According to publication doi:10.1101/418368:
No constants are given. Whether binding was seen depends on the method and setting. In cells and extracts the contact can be indirect. A yes stands for co-enrichment or nearness to the bait. Other partners may have been found.

The chains behind the UniProt entries cited, without tags or fusion partners.
UniProt P49739: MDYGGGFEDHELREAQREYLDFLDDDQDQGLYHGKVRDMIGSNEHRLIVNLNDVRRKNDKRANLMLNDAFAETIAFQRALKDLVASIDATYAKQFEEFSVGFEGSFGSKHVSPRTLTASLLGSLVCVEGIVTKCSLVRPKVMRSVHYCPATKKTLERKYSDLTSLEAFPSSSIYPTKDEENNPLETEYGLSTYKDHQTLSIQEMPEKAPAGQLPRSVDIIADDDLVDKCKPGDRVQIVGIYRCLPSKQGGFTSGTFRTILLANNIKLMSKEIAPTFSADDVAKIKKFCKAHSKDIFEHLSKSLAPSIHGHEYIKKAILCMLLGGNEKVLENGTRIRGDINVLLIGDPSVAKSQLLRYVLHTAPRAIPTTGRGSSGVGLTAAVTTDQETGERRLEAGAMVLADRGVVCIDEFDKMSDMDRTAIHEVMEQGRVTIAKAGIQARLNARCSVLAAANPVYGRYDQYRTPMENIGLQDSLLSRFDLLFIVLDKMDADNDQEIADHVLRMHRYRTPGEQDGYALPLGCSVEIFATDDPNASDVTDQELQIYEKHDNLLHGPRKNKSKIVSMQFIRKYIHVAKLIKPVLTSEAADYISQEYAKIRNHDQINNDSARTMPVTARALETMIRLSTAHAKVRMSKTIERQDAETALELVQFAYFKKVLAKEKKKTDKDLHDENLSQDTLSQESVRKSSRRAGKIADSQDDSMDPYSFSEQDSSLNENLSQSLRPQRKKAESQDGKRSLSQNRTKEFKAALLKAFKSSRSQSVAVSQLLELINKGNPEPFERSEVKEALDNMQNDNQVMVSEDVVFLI

Target: Mcm3 (Xenopus laevis (endogenous in egg extract)) (UniProt P49739)
Assay: affinity purification with mass spectrometry

- binding: binds
B1: Ctf4/And-1 (protein, UniProt O13046 1-1127)
chain: MPAIKKNMRYGHPEGHTDVCFDDSGNFLVTCGSDGDIRIWESLDDDDPKSISIGEKAYSFALKNGKVVTAASNNAIQLHTFPDGEPDGILTRFTTNANHVVFNTDGTRIAAGSGDFLVKVLQVEDSTQQKTLRGHSAPVLSVSFDPKDIYLASASCDGSVRIWKISDQTCEAVLPLLEKCNDVFNAKSICRLAWQPKSGKFVAIPVGKAVHLYDRDSLKNICTLSDDFITQPVNIVAWSPCGQYLVAGSVDGCIVAWNIATKACLERIKHEKGYTICALAWHPHLPQIAYTDNEGNLGLLEDVCQGDVKQPSAKVSSAETKDYDELFDGDDDEDFLNGDMIGHEGAVNDEDDDDNFTALTGRPRNRGAIFDDDISSDVPSLKLVGNENPVVEDDQASSVQNFTSVASVKLSYNGPMPTPQQKPFQSGSTPVHLMHRFMVWNSVGVIRCYNDEQDNAIDVEFHDTSIHHAIHLTNSLNHTLADVSQEAVLLACETTEELASKLQCLHFSSWDTSKEWMVDMPKGENIQAICLGQGWVACATSALLIRIFSVGGVQKELISLFGPVVCMASHGEQLIVVYHRGMGFDGDQCLGVQLLELGKKKKQVLHGDPLPLSRKSYLSWLGFTAEGSPCYVDSEGIVRLLNRSLGDTWVPICNTREHCKGKSDHYWVVGIHENPQQVRCIPCKGSRFPPTLPRPAVAVLPFNLPYCQITTEKGQMEEQYWRSQIFSNHSDYLSKHGYECDENFKAEAQKMQQELLMKMFALSCKLEREFRCMELAEFMTQNVMNLAIKYASRSKRLILAQRLSEMALEKAAEQASAEQNEEEDEEEEDFRSRLTAGYSRTATEWGDSRAKPVKQDQYEENNEEEMEEEEKEQEEALESNTPTANPFNKSVKTPDVSESKLGAILSSNQGRVNPFKVSASQKSPAFASNSSRSTSILDNMGKFPRKPSASGSPSTSKSDSVIIKPLAPKAKSKQGQATLFHSVQAKPIAKKTTEEKKAVPTPPKAAADIAENKKPKTGFQLWLDENRPSILSENAGLDESEIIKEGMSRFRMLTSEERMLWTEKAKGDYPGEDGADAKKRKRPEQENMASNGCPQENTDSGIAAAKKHKPLGQSANNKLSAFAFKKE
